Mtb heat-shock: 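Assay on Mycobacterium tuberculosis, filed only as a heat shock assay from Cornell; the read-out is not stated. The concentration is filed as 10 mM, unlikely as a test dose, so the dose is not known. Direction is inferred from retests: higher values go with stronger inhibition. Of about 69,000 compounds tested this way, about 930 (1.4%) reached 50% or more in at least one test.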
LdMetRS: 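Methionyl-tRNA synthetase (putative), Leishmania donovani (UniProt E9BF75). Primary screen of methionyl-tRNA synthetase; the read-out is not stated. The test concentration is not given. The values are filed as inhibition. Size under these conditions: about 68,000 compounds, about 24 of them at 50% or above in at least one test.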
Mtb growth Cornell: 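Whole-cell assay for inhibitors of Mycobacterium tuberculosis growth, labelled Cornell in the record; the read-out is not stated. The concentration is filed as 10 mM, unlikely as a test dose, so the dose is not known. The record gives no direction; compounds strong in two other growth screens of this library score well above the rest, so higher reads as stronger inhibition. Size under these conditions: about 53,000 compounds, about 900 of them at 50% or above in at least one test.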

Amino acid sequences for entries named in this document (tags omitted).
UniProt E9BF75, entry or part of it: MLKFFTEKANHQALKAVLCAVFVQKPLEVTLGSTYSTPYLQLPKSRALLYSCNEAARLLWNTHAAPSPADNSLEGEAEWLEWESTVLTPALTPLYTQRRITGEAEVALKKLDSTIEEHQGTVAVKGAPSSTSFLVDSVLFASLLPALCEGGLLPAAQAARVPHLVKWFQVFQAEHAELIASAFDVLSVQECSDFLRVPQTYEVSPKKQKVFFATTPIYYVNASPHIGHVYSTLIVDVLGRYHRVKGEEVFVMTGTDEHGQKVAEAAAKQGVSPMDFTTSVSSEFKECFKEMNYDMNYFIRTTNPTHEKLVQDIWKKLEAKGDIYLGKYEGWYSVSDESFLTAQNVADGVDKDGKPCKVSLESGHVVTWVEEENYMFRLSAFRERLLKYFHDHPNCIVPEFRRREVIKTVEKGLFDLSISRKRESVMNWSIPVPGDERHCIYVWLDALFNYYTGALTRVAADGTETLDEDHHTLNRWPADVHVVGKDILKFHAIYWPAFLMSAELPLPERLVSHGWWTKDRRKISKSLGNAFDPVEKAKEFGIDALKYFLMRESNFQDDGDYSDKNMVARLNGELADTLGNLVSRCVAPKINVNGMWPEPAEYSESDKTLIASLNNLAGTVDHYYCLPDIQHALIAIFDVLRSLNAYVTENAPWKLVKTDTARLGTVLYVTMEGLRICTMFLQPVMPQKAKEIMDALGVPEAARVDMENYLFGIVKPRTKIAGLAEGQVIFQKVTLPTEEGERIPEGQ

Results are percentages, as filed.
The controls that fix the scale are not given in the record; negative values are as filed.
Compounds were drawn at random from those tested, without regard to their results.
A dash means the value is not listed here; it may have been measured.

Compound | Mtb heat-shock | LdMetRS | Mtb growth Cornell
CC(C)COCC1CN(Cc2cnn(C)c2)Cc2ncn(C)c21 (centres undefined) | -8.128 | -8.168 | -
CN(C)c1ccc(NC(=O)c2ccnn2C)nc1 | 3.56 | -12.71 | -
CC(C)COCCNC(=O)NC1CCCN(c2cnn(C)c2)C1 (centres undefined) | -19.8 | 8.303 | -43.77
[H][C@@]12COC[C@]1(CNS(C)(=O)=O)CN(C(=O)C1CC=CC1)C2 | 6.402 | - | -4.911
Cc1nc(-c2ccsc2)ccc1C(=O)N(C)CC1CC1 | 11.78 | 8.782 | 16.48
Cc1ccc(NC(=O)CNc2cccc(C(N)=O)c2C)c(C)c1 | -11.44 | 3.683 | -29.06
O=C(c1cccn1-c1ccc2c(c1)OCCO2)N1CCCC1 | 3.876 | 8.411 | 18.16
COC(=O)c1cc(C(=O)N2CCOC(C)(C)C2)n(-c2ccccc2)n1 | 5.793 | 9.836 | -
COc1ccc(CN2CCCCC2c2n[nH]cc2-c2cc(C)no2)cc1.Cl (centres undefined) | -4.273 | - | -27.01
CCN(CC1CN(Cc2ccccn2)CCO1)c1cccnn1 (centres undefined) | -38.97 | 19.1 | 5.984
CC(C)Nc1cc(N2CCC(n3cc(C4CC4)nn3)CC2)ncn1 | -24.54 | 19.2 | -24.8
CCC1CN(CC(=O)N2CCC2)CCN1CCOC (centres undefined) | -0.8073 | 14.38 | -4.549
CCOC(C)c1noc(CN2CCCN(c3ccccn3)CC2)n1 (centres undefined) | 3.985 | 12.24 | 13.77
Cc1nn(C)c2nc(C(C)C)cc(C(=O)Nc3n[nH]c(C4CC4)n3)c12 | -3.03 | 9.704 | 18.74
Cc1ccc(NC(=O)NCCCn2nc3ccccn3c2=O)cc1 | 1.4 | 20.55 | -
Cc1noc(C)c1CN1CCCC2(C1)CN(c1nccs1)CCO2 (centres undefined) | - | 18.52 | -
O=c1[nH]c(N2CC(O)C2)nc2c1cnn2-c1ccccc1 | 0.07891 | 11.5 | -
COc1cc(C(=O)NC(C)c2cccs2)cc2c1OCCO2 (centres undefined) | -14.41 | 18.01 | -
Cc1ccc(C2CCCN2Cc2nc(-c3ccco3)no2)cc1 (centres undefined) | -23.49 | -1.242 | -
CN1CCC(c2cncc(N(C)C)n2)CC1 | 1.046 | 18.23 | 8.436
O=C(O)C(F)(F)F.O=C(O)C(F)(F)F.[H][C@@]12COC[C@H](C(=O)NCc3ccccn3)[C@]1([H])CN(Cc1ccoc1)C2 | 2.625 | - | 17
O=C(c1ccc(-c2cccs2)cc1F)N1CCN(CCO)CC1 | -33.42 | 13.51 | 21.1
COc1ccc(NC(=O)Nc2cnc(N3CCN(C)CC3)nc2)cc1Cl | 17.18 | 13.52 | 32.76
CCOc1cc(CNCC2CN(C3CC3)CCO2)ccc1OC (centres undefined) | -10.99 | 9.044 | 26.56
CN(C)CCN(C(=O)Cc1ccc2c(c1)OCCO2)C1CCN(C)CC1 | - | 9.176 | -
Cc1cc(C)n(CC(C)NC(=O)NCc2c(C)cc(C)[nH]c2=O)n1 (centres undefined) | -10.87 | 11.02 | -
Cc1ccc(OCCC(=O)N2CCCC(n3nc(C)nc3C)C2)cc1 (centres undefined) | -3.118 | 16.24 | -7.156
O=C(O)C(F)(F)F.O=C(O)C(F)(F)F.c1ccc(CN2CCC3(CC2)CC(Oc2cccnc2)C3)nc1 | -4.624 | - | 7.575
Cc1nn(CC(=O)Nc2ccon2)c(C)c1Br | 21.82 | 15.58 | -12.17
O=C(CNC(=O)c1cnc2ccccc2c1O)NCCn1ccnc1 | 1.856 | 4.83 | -
O=C(C1CCCOC1)N1CCCCc2ccccc21 (centres undefined) | 10.34 | 10.14 | 15.54
CCN(Cc1ccccc1O)CC1(C)Cc2c(N)nc(N)nc2O1 (centres undefined) | 4.206 | 12.73 | 15.77
O=C(NCCN1CCOCC1)NCc1ccc(-n2cccn2)cc1 | 7.993 | 7.94 | 9.769
CCOC(=O)CNC(=O)C1OC(c2ccccc2)=NN1C(C)=O (centres undefined) | 54.14 | 4.167 | 4.76
O=C(CCc1ccccc1)NCC1CCN(Cc2cccs2)CC1 | 10.74 | 20.28 | 37.79
CC(C)(C)c1nnnn1CC(=O)N(CCC#N)c1ccccc1 | 10.6 | -1.515 | -16.3
N#Cc1ccc(CNC(=O)NC2CCN(CC(F)F)CC2)cc1 | -18.38 | 7.807 | -4.096
Cc1nccn1-c1cc(CNC(=O)NCC2CCCO2)ccn1 (centres undefined) | -14.25 | 20 | -7.379
CN1CCC(Cc2noc(-c3cccc4c3OCC4)n2)CC1 | 11.5 | 13.18 | -1.042
Cc1nccn1CCCC(=O)N1CCCC(c2noc(C(C)C)n2)C1 (centres undefined) | -1.475 | 16.67 | 7.82
NC(=O)C1CCN(C(=O)NCCNc2ccccn2)CC1 | -9.25 | 20 | -
Cc1ccc2[nH]c(CN(C)c3cc(CN)nc(C)n3)nc2c1 | 7.361 | 16.38 | 10.99
O=C(O)C(F)(F)F.[H][C@@]12CN(Cc3ccc(C)o3)C[C@H](C(=O)N3CCCCO3)[C@]1([H])CCO2 | -5.203 | - | 9.725
CS(=O)(=O)NCC1CCCN(C(=O)c2ccc3c(c2)CCC3)C1 (centres undefined) | -12.23 | 5.686 | 3.75
CCCc1n[nH]c(C2CN(C(=O)CCc3cscn3)CCO2)n1 (centres undefined) | -15.25 | 14.74 | -
CCN1CCN(c2ccc(C(=O)NCCn3ccnc3)cc2F)CC1 | -17.73 | 16.77 | 7.136
COCCN(Cc1ccncc1)C(=O)C1COc2c(cccc2OC)C1 (centres undefined) | -30 | 19.76 | 33.6
COCCNC(=O)Cn1cc(OCc2ccccc2F)c(=O)cc1CO | -20.49 | 0.9174 | -58.86
COc1cccc2ccc(N3CCC(O)(C(=O)O)CC3)nc12 | -42.24 | 7.43 | -24.68
Cc1ccc(C)c(-n2ncc(C(=O)N(C)CCc3ccccn3)c2N)c1 | 29.21 | 10.83 | 10.91
O=C(O)[C@@H]1CN(Cc2c[nH]c(CC3CCCC3)n2)C[C@H]1c1ccccn1 | -43.74 | 7.519 | 12.75
COc1ccccc1C1(CNc2ncc(S(N)(=O)=O)s2)CC1 | -5.063 | 10.87 | 29.49
COc1ccc(C(C)(C)C)cc1CN1CCn2c(CO)nnc2C1.O=C(O)CC(O)(CC(=O)O)C(=O)O | -6.65 | - | -21.85
CCOc1cccc(NC(=O)c2cnc(C)cn2)n1 | 2.294 | 22.12 | -8.496
CN(Cc1ccon1)C(=O)C1CC(=O)N(Cc2cccnc2)C1 (centres undefined) | 1.547 | 4.27 | -
CC(NCc1cccn1C)c1noc(-c2ccc(Cl)cc2)n1 (centres undefined) | -7.234 | 13.61 | 48.73
CC[C@H]1CN2CC[C@H]1C[C@@H]2CNC(=O)c1ccco1 | - | 13.9 | -
CCOC(=O)C1CCN(C(=O)CN2CCCC2Cc2ccccc2)CC1 (centres undefined) | 1.216 | 6.25 | 31.57
COC(=O)COc1ccc(-c2noc(C3CCCO3)n2)cc1 (centres undefined) | -33.91 | 5.222 | -5.657
COCCCN1C(=O)CC[C@H]2CN(c3cc(C(N)=O)ccn3)CC[C@H]21 | - | 11.06 | -
O=C(O)C(F)(F)F.[H][C@]12CCCC(N(C)Cc3cccs3)[C@@]1([H])CN(C(=O)c1cnccn1)C2 (some centres undefined) | -27.74 | - | 16.97
O=C(N1CCCO1)[C@@]12CCO[C@@H]1CCN(C1CCCCC1)C2 | - | 14.64 | -
CC(C)(C)OC(=O)N1CCCCC(NC(=O)CCc2cccnc2)C1 (centres undefined) | -2.128 | 0.2841 | -
[H][C@@]12C[C@H](C(=O)Nc3cccnc3)[C@@]([H])(CN(S(=O)(=O)C3CC3)C1)O2 | -11.95 | - | 8.728
CC(CN1CCOCC1)NC(=O)N1CCN(S(C)(=O)=O)CC1 (centres undefined) | 2.751 | 2.168 | -20.62
O=C(c1cnc[nH]1)N1CCC(Oc2cccnc2)CC1 | 0.5191 | 5.208 | -5.601
Cn1ncc2c(N3CC(N4CCCCC4)C3)nc(C3CCCC3)nc21 | -41.12 | 12.37 | -19.8
Fc1ccc(OC2CCN(Cc3nnc(-c4ccco4)o3)CC2)cc1 | -6.016 | 16.62 | 23.52
C[S+]([O-])CCNC(=O)Nc1cc(F)ccc1-n1cccn1 (centres undefined) | 7.238 | 0.2841 | -
CC(=O)N1CCC(n2nccc2-c2cnc(N(C)CCO)nc2)CC1 | -11.55 | 11.89 | 8.685
c1ccc(Oc2ncccc2CNCc2ccccn2)cc1 | 69.15 | - | -
Cc1n[nH]cc1CNC(=O)[C@H]1CCCCN1C(=O)OC(C)(C)C | -0.8123 | 4.869 | 2.595
CCOc1ccc(C(=O)CCC(=O)NCCc2nncn2CC)cc1C | -16.59 | 7.453 | -
CN1CCc2c(c(COc3cncnc3)nn2CC2CC2)C1.O=C(O)C(F)(F)F | -18.37 | - | -0.3511
O=C1O[C@@H]2CN(Cc3ccsc3)C[C@@H]2N1Cc1ccccn1 | - | 2.338 | -

The first 7 entries again:

Compound	Mtb heat-shock	LdMetRS	Mtb growth Cornell
CC(C)COCC1CN(Cc2cnn(C)c2)Cc2ncn(C)c21 (centres undefined)	-8.128	-8.168	-
CN(C)c1ccc(NC(=O)c2ccnn2C)nc1	3.56	-12.71	-
CC(C)COCCNC(=O)NC1CCCN(c2cnn(C)c2)C1 (centres undefined)	-19.8	8.303	-43.77
[H][C@@]12COC[C@]1(CNS(C)(=O)=O)CN(C(=O)C1CC=CC1)C2	6.402	-	-4.911
Cc1nc(-c2ccsc2)ccc1C(=O)N(C)CC1CC1	11.78	8.782	16.48
Cc1ccc(NC(=O)CNc2cccc(C(N)=O)c2C)c(C)c1	-11.44	3.683	-29.06
O=C(c1cccn1-c1ccc2c(c1)OCCO2)N1CCCC1	3.876	8.411	18.16

The values are deposited in ChEMBL (CHEMBL3988442, “University of Dundee, Small-Polar-MMV Screening Library” (2021)).